# Measured values as given in PubChem BioAssay AID624291 (National Center for Advancing Translational Sciences (NCATS), 2012).
# Out of some 350,000 compounds screened, about 220 (0.063%) were called active. Inconclusive results, whose numbers are uncertain, are shown with a selection of clear calls. Calls follow the shape of the dose curve; as a rule, active = well fitted activation curve with a large enough effect; inconclusive = small, poorly fitted or top-dose-only effect; inactive = no such curve, though single readings can be large or run the other way. Potencies of inconclusive entries are doubtful fits and often do not repeat.
# Test: qHTS for Activators of Integrin-Mediated Alleviation for Muscular Dystrophy; also: nearly all actives have a fitted effect of over 60% in size;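 as to activation: 100% = response of the positive control SU9516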
# Details: alpha7betagal myoblasts, beta-gal FDG fluorescence, 48 h; activation: at 38.3 µM (top of the series)
# Summary of the method: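 alpha7betagal+/- myoblasts (passage 13, 250/well) treated 48 h at 37C with compounds at 1:260 dilution of DMSO stock. Lysed, then beta-galactosidase activity read as FDG fluorescence (ex 480/em 540) after 30 min, with pre-read for autofluorescence.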
# Potency is read from the fitted curve at half-maximal effect.
SMILES,Potency,activation
Cc1ccc(NC(=O)CCCC(=O)O)c(-c2nc3ccccc3[nH]c2=O)c1,"inconclusive: 2.24 µM [activator, partial curve, poor fit]",–
COc1cc(OC)c(OC)cc1/C=N/NC(=O)c1ccc2nc[nH]c2c1,"inconclusive: 5.01 µM [activator, partial curve, poor fit]",–
CCN1CCN(C(c2cccs2)C(C)NC(=S)NC2CCCCC2)CC1 (centres undefined),–,inactive: 7.52%
COc1cc(C2C(C(C)=O)=C(O)C(=O)N2CCc2c[nH]c3ccccc23)ccc1O (centres undefined),"inconclusive: 31.6 µM [activator, single point]",–
CC1CC(C)CN(CC(=O)NCCc2ccc(S(N)(=O)=O)cc2)C1 (centres undefined),"inconclusive: 5.01 µM [activator, single point]",–
CN(C)C(=O)c1ccc(NC(=O)CSc2nnc(-c3cccs3)n2N)cc1,"inconclusive: 0.447 µM [activator, full curve, poor fit]",–
CCn1c(SCC(=O)N2c3ccccc3CCc3ccccc32)nc2c1c(=O)n(C)c(=O)n2C,–,inconclusive: 97% [activator]
Cc1cc(=O)oc2c(CN3CCCC3)c(O)ccc12,"inconclusive: 1.41 µM [activator, single point]",–
CN(CCOc1ccccc1)CC(O)COc1ccccc1 (centres undefined),–,inactive: -6.3%
O=C1C=C(c2ccccc2)C(c2ccccc2)C1O (centres undefined),"inconclusive: 1.12 µM [activator, partial curve, poor fit]",–
CC(=O)NC(=O)c1cnn(-c2ccccc2)c1N,"inconclusive: 28.2 µM [activator, single point]",–
CC1CCC2(CC1)NC(=O)N(CC(=O)Nc1ccc(F)cc1)C2=O (centres undefined),"inconclusive: 3.98 µM [activator, partial curve, poor fit]",–
O=C(Cc1c(F)cccc1Cl)N(Cc1ccccc1)c1ccccn1,"inconclusive: 28.2 µM [activator, single point]",–
COC(=O)C1=C(C(=O)OC)SC(=C2C(=S)C(C)(C)N(C(=O)C3CC3)c3ccccc32)S1,–,inactive: 1.15%
COc1ccc(C)c2sc(N(CCN(C)C)C(=O)/C=C/c3cccs3)nc12,–,inactive: -68.3%
N#Cc1ccc(COC(=O)CC(NC(N)=O)c2ccc(Cl)cc2)cc1 (centres undefined),"inconclusive: 5.01 µM [activator, single point]",–
COc1ccc(NC(=S)NCCCN2CCCC2)cc1,"inconclusive: 28.2 µM [activator, single point]",–
COc1cc(NC(=O)c2ccc3nsnc3c2)cc(OC)c1OC,"inconclusive: 5.01 µM [activator, single point]",–
c1coc(CNc2c3c(nc4ncnn24)CCC3)c1,"inconclusive: 22.4 µM [activator, single point]",–
O=C1NC(Cc2c[nH]c3ccccc23)C(=O)N1CCOc1ccc(F)cc1 (centres undefined),–,inactive: -22.2%
O=C(CSc1nc2ccccc2o1)N/N=C/c1ccco1,"inconclusive: 2 µM [activator, full curve, poor fit]",–
CCOc1ccc2[nH]c3c(N4CCN(c5ccccn5)CC4)ncnc3c2c1,–,inactive: -24.5%

# A run of entries from the list above, for reference:
SMILES,Potency,activation
c1coc(CNc2c3c(nc4ncnn24)CCC3)c1,"inconclusive: 22.4 µM [activator, single point]",–
O=C1NC(Cc2c[nH]c3ccccc23)C(=O)N1CCOc1ccc(F)cc1 (centres undefined),–,inactive: -22.2%

# Next part.

SMILES,Potency,activation
CCCCn1c(N)c(Sc2ccc([N+](=O)[O-])cc2)c(=O)[nH]c1=O,"inconclusive: 12.6 µM [activator, single point]",–
COc1cc(OC)cc(C(=O)NCC(=O)OCc2nc3ccccc3s2)c1,"inconclusive: 5.01 µM [activator, single point]",–
CCN(CC)c1ccc(N2C(=NC(=O)C3CCCO3)SC3CS(=O)(=O)CC32)cc1 (centres undefined),–,inactive: 18.9%
Cc1ccc(S(=O)(=O)CCC(=O)OCC(=O)NC(C)c2ccccc2)cc1 (centres undefined),"inconclusive: 3.16 µM [activator, single point]",–
Cc1cc(CC(C)C)n(-c2nc3ccccc3c(=O)n2OCc2ccccc2)n1,–,inactive: -28.7%
CCOC(=O)C1CCN(C(=O)Cn2nc(C)n3c(cc4cc(C)ccc43)c2=O)CC1,"inconclusive: 5.01 µM [activator, partial curve, poor fit]",–
CCc1nnc(NC(=O)c2oc3ccc(Br)cc3c2C)s1,–,inactive: 0%
COCCCNC(=S)NCCNc1nc2cc(C)cc(C)c2cc1C#N,"inconclusive: 3.16 µM [activator, single point]",–
COc1ccc(N(CC(=O)N/N=C(\C)c2ccccc2)S(=O)(=O)c2ccccc2)cc1,"inconclusive: 28.2 µM [activator, single point]",–
COc1ccc(-c2cc(-c3n[nH]c(=S)n3-c3ccccc3Cl)[nH]n2)cc1,"inconclusive: 28.2 µM [activator, single point]",–
COc1cc(C(=O)OCC(=O)NC2CC2)ccc1OCCC(C)C,"inconclusive: 1.58 µM [activator, partial curve, poor fit]",–
CSCC[C@H](NC(=O)c1cccnc1)c1nnc2ccccn12,"inconclusive: 2 µM [activator, single point]",–
COc1ccc(/C=C2\SC(=O)N(CCNC(=O)CN3C(=O)NC4(CCCC4)C3=O)C2=O)cc1,–,inactive: -3.79%
Cc1cc(C(=O)COC(=O)CNC(=O)c2ccco2)c(C)n1Cc1ccco1,–,inactive: -0.876%
Cc1ccc(NNC(=O)c2ccno2)cc1Cl,"inconclusive: 1.58 µM [activator, partial curve, poor fit]",–
COc1ccc(N2CCN(C(=O)c3ccccc3NS(=O)(=O)c3ccc(C)cc3)CC2)cc1,"inconclusive: 8.91 µM [activator, single point]",–
COC(OC)c1ccnc(-c2ccc(OC(=O)c3ccc(F)cc3)cc2)n1,"inconclusive: 5.01 µM [activator, single point]",–
COc1ccc(NC(=O)COc2ccc(C(=O)NCc3cccnc3)cc2OC)cc1,"inconclusive: 0.447 µM [activator, partial curve, poor fit]",–
Cn1ncc2c(Nc3cccc(Cl)c3)nc(Nc3cccc(Cl)c3)nc21,–,inactive: -66.6%
Cc1ccc2[nH]c(=O)c(CN(CCc3ccccc3)C(=O)N3CCOCC3)cc2c1,–,inactive: 12.4%
CCC(/C=C1\Sc2ccc(OC)cc2N1CCO)=C\c1sc2ccc(OC)cc2[n+]1CCO,–,inactive: -32.7%
COc1cc(COc2ccc3c(C)c(CC(=O)O)c(=O)oc3c2C)cc(OC)c1OC,"inconclusive: 3.98 µM [activator, single point]",–
